From US11918577B2, “Dipeptidyl peptidase-4 inhibitors for topical eye treatment of retinal neurodegenerative diseases” (FUNDACIÓ HOSPITAL UNIVERSITARI VALL D'HEBRON - INSTITUT DE …, priority 2016, dated 2024) come the findings set out here.

A short description of this data set: Blood glucose concentration and body weight at end of eye drop treatment in db/db mice. In kind it is in vivo, mouse. The note with it: eye drops.

“Also recorded” adds a separate entry of the source.

Take `N#C[C@@H]1C[C@@H]2C[C@@H]2N1C(=O)[C@@H](N)C12CC3CC(CC(O)(C3)C1)C2` [Saxagliptin, (1S,3S,5S)-2-[(2S)-2-amino-2-(3-hydroxy-1-adamantyl)acetyl]-2-azabicyclo[3.1.0]hexane-3-carbonitrile]: the “blood glucose concentration at the end of treatment vs vehicle” value is listed as “similar; also recorded: without any change in blood glucose levels” and the “body weight at the end of treatment vs vehicle” value was “similar”.
For `N[C@@H](CC(=O)N1CCn2c(nnc2C(F)(F)F)C1)Cc1cc(F)c(F)cc1F` [Sitagliptin, (R)-4-oxo-4-[3-(trifluoromethyl)-5,6-dihydro[1,2,4]triazolo[4,3-a]pyrazin-7(8H)-yl]-1-(2,4,5-trifluorophenyl)butan-2-amine], in that order: “similar; also recorded: without any change in blood glucose levels” and “similar”.
